Results taken from patent publication US20190167756A1 (CITY OF HOPE, published 2019).
These are yes or no findings as the source states them, for the method shown. In cells and extracts the contact can be indirect. Some results given as binding are weak or reduced against the parent protein; the word gives no strength.

Protein sequences, listed by entry. Tags and fused reporters are not part of them. Residues count along the entry.
UniProt Q02248, residues 2-781: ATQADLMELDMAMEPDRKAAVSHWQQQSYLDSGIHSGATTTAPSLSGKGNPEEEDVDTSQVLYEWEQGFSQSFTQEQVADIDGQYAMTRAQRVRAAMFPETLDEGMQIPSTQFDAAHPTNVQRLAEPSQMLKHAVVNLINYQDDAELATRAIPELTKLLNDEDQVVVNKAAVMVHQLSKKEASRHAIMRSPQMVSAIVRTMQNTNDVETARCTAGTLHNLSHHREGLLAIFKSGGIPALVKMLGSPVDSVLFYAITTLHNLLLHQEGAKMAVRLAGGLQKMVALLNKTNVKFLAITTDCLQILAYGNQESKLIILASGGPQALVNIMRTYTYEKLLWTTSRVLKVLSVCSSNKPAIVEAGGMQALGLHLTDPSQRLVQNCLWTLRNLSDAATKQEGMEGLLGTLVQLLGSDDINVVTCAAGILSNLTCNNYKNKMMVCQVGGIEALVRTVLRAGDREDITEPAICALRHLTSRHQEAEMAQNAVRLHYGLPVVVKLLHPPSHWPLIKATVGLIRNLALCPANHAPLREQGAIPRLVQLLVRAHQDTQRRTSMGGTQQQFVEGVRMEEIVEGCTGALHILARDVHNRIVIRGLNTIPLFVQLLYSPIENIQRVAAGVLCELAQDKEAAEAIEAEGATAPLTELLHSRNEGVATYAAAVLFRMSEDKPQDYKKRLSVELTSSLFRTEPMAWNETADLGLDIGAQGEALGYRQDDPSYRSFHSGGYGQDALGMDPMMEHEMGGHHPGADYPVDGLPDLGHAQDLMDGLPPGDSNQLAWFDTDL

How the values were obtained:
FOXM1 (mouse) [1] = biological target: T1, FOXM1 (mouse) (UniProt O08696); assay: co-IP of β-catenin, Western blot
T1 sequence (looked up): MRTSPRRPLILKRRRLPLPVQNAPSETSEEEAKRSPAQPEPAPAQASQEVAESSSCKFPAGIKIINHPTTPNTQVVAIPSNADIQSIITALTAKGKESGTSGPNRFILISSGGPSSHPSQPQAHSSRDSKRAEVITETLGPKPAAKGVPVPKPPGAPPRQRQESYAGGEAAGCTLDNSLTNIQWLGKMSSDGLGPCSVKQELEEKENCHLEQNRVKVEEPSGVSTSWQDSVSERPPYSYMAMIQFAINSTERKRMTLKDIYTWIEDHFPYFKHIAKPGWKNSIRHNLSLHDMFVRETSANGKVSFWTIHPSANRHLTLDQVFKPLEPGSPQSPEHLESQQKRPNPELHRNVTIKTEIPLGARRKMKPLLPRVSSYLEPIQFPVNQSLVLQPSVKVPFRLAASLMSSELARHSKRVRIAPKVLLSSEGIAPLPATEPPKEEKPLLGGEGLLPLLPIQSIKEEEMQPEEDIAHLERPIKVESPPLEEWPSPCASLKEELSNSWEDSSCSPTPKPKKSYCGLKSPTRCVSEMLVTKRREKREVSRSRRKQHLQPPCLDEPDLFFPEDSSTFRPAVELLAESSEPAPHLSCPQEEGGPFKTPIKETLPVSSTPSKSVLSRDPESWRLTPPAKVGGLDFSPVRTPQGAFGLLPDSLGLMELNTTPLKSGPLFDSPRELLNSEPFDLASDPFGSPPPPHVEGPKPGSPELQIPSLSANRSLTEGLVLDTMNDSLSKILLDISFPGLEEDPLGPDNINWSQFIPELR

FOXM1 (mouse) [2] = biological target: T1, FOXM1 (mouse); assay: co-IP of β-catenin from GT1-7 cell lysates, Western blot for FOXM1 (FIG. 3E); less FOXM1 pulled down in thiostrepton-treated cells

- binding (FOXM1 (mouse) [1]): binds
- binding (FOXM1 (mouse) [2]): binds
Substance: β-catenin (from UniProt Q02248 2-781)
